PubChem BioAssay AID1159578 – Peter MacCallum Cancer Centre | 2015

Test: 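Genome-wide hunt for genes controlling movement of lymphatic endothelial cells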 (primary screen)
System: human lymphatic endothelial cells
Knock-down reagent: siRNA pool against human genes, 40 nM
Duration: 48 h after transfection
Detection: 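High-content imaging of dye-stained cells in a scratch assay measures filled wound area and nuclei per well; duplicate means given as ratio to mock and robust z-score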
Direction: migration robust z-score: higher = faster migration into the scratch; nuclei per well: higher = more cells in the well
Call rule: 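Pools averaging fewer than 3300 nuclei are never called; remaining pools count as changed when migration robust z lies outside -2 to 2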
Calls: active = migration changed; inactive = no migration change, or too few cells
The whole screen tested about 18,000 reagents; this is an unselected part. Of all reagents, about 1,030 (5.7%) are marked active. 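Inactive calls also include pools with fewer than 3300 nuclei, whose migration was not assessed.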 The raw values are shown without normalisation. A number with no mark means an inactive call. Not all columns of the deposit are shown.

target gene | migration robust z-score | nuclei per well, duplicate mean
RPP30 | 0.78 | 5182
PLAC8 | -0.39 | 5018
GALE | 1.29 | 4290
NRXN1 | -0.45 | 5012
SLCO4C1 | -1.19 | 3814
OR2AT4 | 0.12 | 6038
LRRC37A | -1.59 | 4716
LAMA2 | 0.22 | 5866
GPR75 | -0.65 | 5668
SLC2A7 | -0.81 | 6374
MOGS | -0.36 | 6844
AMOT | -0.64 | 5551
TMEM105 | 0.02 | 4011
ARL4A | 0.91 | 6002
LEP | 1.74 | 6100
MYH6 | -0.88 | 5021
CENPE | 0.34 | 4984
BNIPL | -0.44 | 6452
ZNF343 | 0.52 | 4894
FBN2 | 0.56 | 4962
NCAM1 | 0.54 | 6360
ZNF800 | -0.52 | 6292
GAPDH | -0.88 | 5800
PLPPR2 | -2.52 (active) | 5060
SULF1 | 0.68 | 4606
C2CD2L | 0.55 | 6528

The list goes on; the last 5 above are carried over.
target gene | migration robust z-score | nuclei per well, duplicate mean
ZNF800 | -0.52 | 6292
GAPDH | -0.88 | 5800
PLPPR2 | -2.52 (active) | 5060
SULF1 | 0.68 | 4606
C2CD2L | 0.55 | 6528
CABP5 | -0.88 | 5038
METTL22 | -0.94 | 3898
PF4 | 0.57 | 4986
PGA4 | 0.62 | 4876
RPS15 | -1.62 | 4920
NARF | -1.6 | 6175
PHKA1 | 1.27 | 5686
BFSP2 | 1.59 | 4876
HPR | -0.21 | 5808
HACD2 | -0.9 | 4805
ARHGEF18 | -0.26 | 5394
DDR1 | -0.05 | 5326
HEPH | 1.04 | 5994
ACTR10 | 0.73 | 5520
SEMA3B | 0.12 | 5508
WDR12 | 0.74 | 5736
ZNF280C | 0.32 | 5161
TEX13A | -0.18 | 5816
MET | -0.39 | 6326
PIK3R3 | -0.65 | 4234
PCK2 | 0.8 | 4642
C10orf55 | 0.38 | 6371
POLE2 | 0.47 | 5268
RELA | -2.18 | 3036
MRPL46 | -0.41 | 5738
ALDOC | 0.08 | 4486
DMD | -1.08 | 4674
INHBA | 1.19 | 6288
TNFAIP6 | 0.03 | 5898
LPIN1 | 0.76 | 5186
ABCA7 | 0.44 | 6522
